Results are given in words; binding and its absence hold for the method and conditions named. In cells and extracts the contact can be indirect. Some results given as binding are weak or reduced against the parent protein; the word gives no strength. For some assays here: Sequences can lack the tags named with a protein.
Columns and labels:
Claspin = target: T1, Claspin (human, UniProt Q9HAW4 1-1339); assay: co-immunoprecipitation with anti-FLAG resin from HEK293T cells, immunoblot (FIG. 2A)
T1 construct: also called endogenous Claspin; wild type Claspin

Sequences of proteins named here, by UniProt entry; tags and fusion partners are left off. A change or cut given only in a name is not applied to a line headed by its entry.
UniProt Q9HAW4: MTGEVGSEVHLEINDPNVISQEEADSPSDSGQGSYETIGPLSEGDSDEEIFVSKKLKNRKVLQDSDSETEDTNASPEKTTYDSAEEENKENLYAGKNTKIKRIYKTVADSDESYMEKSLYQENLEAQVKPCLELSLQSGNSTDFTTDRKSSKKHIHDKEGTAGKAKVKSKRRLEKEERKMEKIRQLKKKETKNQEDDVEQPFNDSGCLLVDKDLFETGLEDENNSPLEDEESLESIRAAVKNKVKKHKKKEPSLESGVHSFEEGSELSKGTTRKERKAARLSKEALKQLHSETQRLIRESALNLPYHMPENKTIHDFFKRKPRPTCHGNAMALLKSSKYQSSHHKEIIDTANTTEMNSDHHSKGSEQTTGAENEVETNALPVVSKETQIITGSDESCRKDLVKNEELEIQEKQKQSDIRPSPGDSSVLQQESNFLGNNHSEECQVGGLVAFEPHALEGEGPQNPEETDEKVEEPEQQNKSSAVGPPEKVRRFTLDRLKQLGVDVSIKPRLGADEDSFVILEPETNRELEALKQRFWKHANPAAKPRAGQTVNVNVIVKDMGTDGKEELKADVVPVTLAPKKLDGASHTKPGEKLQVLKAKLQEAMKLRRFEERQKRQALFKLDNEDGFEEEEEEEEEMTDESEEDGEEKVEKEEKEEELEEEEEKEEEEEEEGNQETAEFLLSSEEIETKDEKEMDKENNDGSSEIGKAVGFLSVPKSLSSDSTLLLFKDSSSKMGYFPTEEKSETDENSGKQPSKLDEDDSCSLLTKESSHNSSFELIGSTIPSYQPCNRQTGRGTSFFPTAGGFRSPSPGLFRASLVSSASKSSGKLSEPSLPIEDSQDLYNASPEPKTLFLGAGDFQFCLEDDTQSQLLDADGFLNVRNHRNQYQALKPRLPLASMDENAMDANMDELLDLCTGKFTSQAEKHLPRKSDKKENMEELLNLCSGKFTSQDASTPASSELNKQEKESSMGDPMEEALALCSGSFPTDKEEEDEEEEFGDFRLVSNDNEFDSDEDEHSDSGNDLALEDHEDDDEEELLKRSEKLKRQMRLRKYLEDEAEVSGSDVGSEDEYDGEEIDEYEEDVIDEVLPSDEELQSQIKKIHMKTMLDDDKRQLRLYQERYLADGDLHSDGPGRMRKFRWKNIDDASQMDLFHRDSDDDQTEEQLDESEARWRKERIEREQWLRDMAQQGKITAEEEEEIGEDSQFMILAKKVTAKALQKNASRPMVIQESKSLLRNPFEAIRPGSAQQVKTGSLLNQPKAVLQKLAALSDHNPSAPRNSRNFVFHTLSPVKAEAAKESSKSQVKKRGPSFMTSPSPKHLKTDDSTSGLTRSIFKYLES
UniProt Q9UM11: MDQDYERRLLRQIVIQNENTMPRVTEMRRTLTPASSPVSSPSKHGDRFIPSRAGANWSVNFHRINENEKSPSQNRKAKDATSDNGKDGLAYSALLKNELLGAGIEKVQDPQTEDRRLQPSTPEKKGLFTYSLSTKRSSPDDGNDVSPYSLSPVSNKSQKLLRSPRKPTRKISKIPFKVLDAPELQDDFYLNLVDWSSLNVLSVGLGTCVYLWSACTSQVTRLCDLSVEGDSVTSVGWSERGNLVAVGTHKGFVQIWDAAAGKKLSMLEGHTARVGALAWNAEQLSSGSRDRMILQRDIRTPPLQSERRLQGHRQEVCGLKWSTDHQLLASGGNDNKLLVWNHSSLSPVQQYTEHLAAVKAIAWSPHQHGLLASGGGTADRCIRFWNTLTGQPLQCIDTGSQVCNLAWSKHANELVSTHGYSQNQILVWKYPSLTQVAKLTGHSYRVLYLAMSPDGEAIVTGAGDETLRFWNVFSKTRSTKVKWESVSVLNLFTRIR

Cdh1 (human) [1] = target: Cdh1 (human) (UniProt Q9UM11); assay: co-immunoprecipitation from G2 U2OS cells, immunoblot (FIG. 11F)
Cdh1 (human) [2] = target: Cdh1 (human) (UniProt Q9UM11); assay: co-immunoprecipitation from G2 U2OS cells with or without doxorubicin, immunoblot (FIG. 11F)
Cdh1 (human) [3] = target: Cdh1 (human) (UniProt Q9UM11); assay: co-immunoprecipitation from G2 U2OS cells, immunoblot (FIGS. 11-13)
Cdh1 (human) [4] = target: Cdh1 (human) (UniProt Q9UM11); assay: co-immunoprecipitation with anti-FLAG resin from G2 U2OS cells after doxorubicin, immunoblot (FIG. 11F)

binding (Claspin)	binding (Cdh1 (human) [1])	binding (Cdh1 (human) [2])	binding (Cdh1 (human) [3])	binding (Cdh1 (human) [4])	Molecule
binds	–	–	–	–	FLAG-tagged Cdh1 (from UniProt Q9UM11 1-496)
–	binds	binds	binds	binds	FLAG-tagged Cdc14B (enzyme, not shown: small tags and cut ends) MKRKSERRSSWAAAPPCSRRCSSTSPGVKKIRSSTQQDPRRRDPQDDVYLDITDRLCFAILYSRPKSASNVHYFSIDNELEYENFYADFGPLNLAMVYRYCCKINKKLKSITMLRKKIVHFTGSDQRKQANAAFLVGCYMVIYLGRTPEEAYRILIFGETSYIPFRDAAYGSCNFYITLLDCFHAVKKAMQYGFLNFNSFNLDEYEHYEKAENGDLNWIIPDRFIAFCGPHSRARLESGYHQHSPETYIQYFKNHNVTTIIRLNKRMYDAKRFTDAGFDHHDLFFADGSTPTDAIVKEFLDICENAEGAIAVHCKAGLGRTGTLIACYIMKHYRMTAAETIAWVRICRPGSVIGPQQQFLVMKQTNLWLEGDYFRQKLKGQENGQHRAAFSKLLSGVDDISINGVENQDQQEPEPYSDDDEINGVTQGDRLRALKSRRQSKTNAIPLTLSISRTKTVLR
